In all, about 33,000 sequences were measured (“E-score (-0.5 to 0.5)”: median about -0.0034, highest 2% from about 0.25 on). The list shows a part of the results.
What follows are sequences tested against T1, Yap3 (UniProt P38749) (assay: PBM E-score (8-mer binding enrichment) (E-score (-0.5 to 0.5)); higher = stronger / more preferred TF binding). Settings: protein concentration: 100 nM; construct: GST-full length.
T1 sequence: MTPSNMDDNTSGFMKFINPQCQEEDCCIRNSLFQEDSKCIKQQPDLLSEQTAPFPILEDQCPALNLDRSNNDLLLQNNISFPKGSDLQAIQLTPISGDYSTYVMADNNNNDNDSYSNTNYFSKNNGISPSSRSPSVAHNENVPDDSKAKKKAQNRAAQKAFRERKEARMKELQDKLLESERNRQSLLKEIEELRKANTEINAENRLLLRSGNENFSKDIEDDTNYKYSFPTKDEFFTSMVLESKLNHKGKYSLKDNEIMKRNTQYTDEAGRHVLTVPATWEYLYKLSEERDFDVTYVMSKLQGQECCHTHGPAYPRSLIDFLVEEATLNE
Outline: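 Universal all-10-mer Agilent arrays, double-stranded by primer extension on fresh or once-stripped slides, were probed with about 100-200 nM GST-tagged yeast transcription factors made by PURExpress. Fluorescent anti-GST detected bound protein, and masliner normalised the scans. E-scores from the Universal PBM Analysis Suite were given to each ungapped eight-base word pooled with its reverse complement.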

Sequence	PBM E-score
GCAACTGA	0.006
GCTCAGAA	-0.016
GTCGGAAC	-0.0566
GGTCAAAC	-0.0628
CCCTCGCA	-0.0713
AGGATCCC	-0.156
GCTCCTAA	-0.265
ACGCCTGC	-0.26
GCATCCGC	-0.101
CCTTTTGC	-0.0359
ACTTTAAG	0.138
ACCTGAGT	-0.052
AGGCCTTC	0.00868
CGACCTTC	0.0383
GATCTCGA	0.00476
ACTGGCAG	-0.135
AGATACAG	0.159
GCATGTGA	0.0561
CGACAGCA	-0.0646
ATGGGTCG	-0.152
GACATGCA	0.00239
GTCGCATA	0.0927
CACATAAC	-0.0392
AGTTGAAG	0.0421
CCGCAGCC	-0.174

Sequence	PBM E-score
AAGCAACC	0.0923
ACACCCTA	-0.0214
AACTGACG	-0.0145
CCGTTCGC	0.00583
ATCCGACG	-0.0364
AGAGCGCT	-0.0304
GGTTACTA	0.0437
AACACATC	0.00349
CACGCGAC	0.0191
AGGAACCG	-0.0478
CGCGCATA	0.0347
AGGACGAT	0.0178
GGACGGTA	-0.0107
ACATAAGG	0.17
CCTCTGGA	-0.136
GCCTGTCA	-0.0613
ATCGGAAT	0.15
CCGCACGC	-0.149
ACCTTACA	0.0448
GGAGATAA	0.107
ATAGTGCC	-0.0304
CCCTTGTC	-0.0711
AAGCAATG	0.142
GCGACGAA	-0.00754
ACGTAAAA	0.198

Sequence	PBM E-score
CCTTTAAA	-0.0208
AAGAGATT	0.0728
TAAGGCTA	-0.0438
CTCCGCGA	-0.128
AGTCTCCA	-0.128
CGCTCGCC	-0.0305
CCGAATCC	0.0723
CCGATGAG	0.053
CCATTGCC	-0.00355
CTGTATTC	0.128
GCTCAAGA	-0.261
GGTGTGTA	0.0354
TTGGCAAA	0.14
ACCATGAT	-0.0481
CTAGTCAA	-0.0259
GGGTAGAC	-0.216
CGGCCAAG	-0.136
ATCTCACC	0.0914
ACCTTGAC	-0.0329
ACATCCTC	-0.0125
CTCTTGCA	-0.214
TAATGGCA	0.105
ACGAACTC	0.0654
ATATGTCG	0.0372
ATTTAAAC	0.242

6 entries drawn at random from those above:
Sequence	PBM E-score
TAATGGCA	0.105
GGGTAGAC	-0.216
GCTCAAGA	-0.261
GGTGTGTA	0.0354
CTCTTGCA	-0.214
AGTCTCCA	-0.128

(list continues)

Sequence	PBM E-score
AGTCACTG	-0.057
CTCCTTAA	-0.15
GGCTGGAC	-0.295
TAACCTTA	-0.0831
CGTGTTCA	0.103
GGTGGTGA	-0.11
AATATACA	0.241
ACGCTAAT	0.015
ATCTCAAT	0.0281
ACAGTGCT	0.0811
CAGGACGG	-0.141
AGGATAGA	-0.00474
AGATCCCC	-0.147
CCTAATCA	0.0984
CTTATATC	0.218
CTCTTAAA	0.198
AGTCTCGG	-0.158
ATGGCATA	0.0884
AGCCCATG	-0.113
ATGTCCCC	0.0276
CACTCACC	-0.0833
AAGGCTCT	-0.198
AGTCCCCC	-0.439
AGAAGAAT	-0.0458
CCTTTGGA	-0.218

Sequence	PBM E-score
ATTACTTC	0.0658
CGTTCCTA	-0.0944
AAATGAAT	0.0825
AGATAATA	0.231
AAAGCGCC	-0.00492
GAGGTGCA	0.0881
AAACGTGG	-0.0654
AGAGAAAT	0.142
CTATCCAC	0.0412
ACACACGA	0.152
AGCCCTAA	-0.114
CGACTATA	0.0848
CGCCACTC	0.113
CAGATCAG	0.185
ATACTGCA	0.107
ACTGGATC	0.00422
CAAACGGG	-0.00468
AGGGGTGA	-0.245
ACTTTGGC	-0.0911
ACTATCGA	0.0401
ATAAAACG	0.206
GCGTAAAC	0.191
GAACCGTA	-0.121
CCGCAGCG	-0.158
CTCGCTGA	-0.0804

Sequence	PBM E-score
CAAAGGTA	-0.162
TGTTCCAA	-0.00789
GGCACAAC	-0.102
CGAGCTCC	-0.15
GCATGAGA	0.0543
CCAACTCA	-0.0415
ACATTGAC	0.0696
GTTCCTAA	-0.0238
ACTACTGC	-0.0865
CCTCACAC	-0.0974
AGTATACC	0.153
GACTAGTC	-0.203
CTGCCCTC	-0.233
CAGAACCC	-0.169
GTACCCAA	-0.0653
CACATCTA	0.138
AGAACCGA	-0.121
GCGACCAC	-0.0579
AAGCTGGC	-0.132
CAGGGAAA	0.00675
GCATTTCA	0.15
AATCCGAA	-0.0138
ATCCGTGG	-0.106
GATATGGA	0.263
AGGTTCGG	-0.158

Sequence	PBM E-score
ATACATTA	0.266
AGGCGACA	-0.224
AATGTCCC	-0.00806
AGACCGGC	-0.291
AGAACGGC	0.0349
CCATGAAC	0.0278
TATGGACA	0.0793
ACGTTCGC	-0.135
ACTGGCTC	-0.178
AATCAACG	0.109
AGGTCCCC	-0.242
AGTCGTGC	-0.239
CAGGTGCG	0.015
ACTCAATC	0.077
TAGTTAGA	-0.00451
AGTTGCAC	-0.129
ATGTTAGC	0.0139
GATTCAGC	-0.0847
GCGAGGGA	-0.092
ACATTTCC	0.109
CCAAATCC	-0.0453
ACATGTTG	0.13
CCACATCC	-0.123
CAGACTGG	-0.17
CTATCCGA	0.0195

Sequence	PBM E-score
GCCTAGAA	-0.0144
TCCTATAA	0.133
CAATAATG	0.00616
GAAGACAA	0.131
TGAAGAAA	-0.0319
ATGAACGC	0.144
GTCGAAAC	-0.0355
GGTTGTAC	-0.11
CAAAAATA	0.332
CACTTCGA	0.035
CTACAGGC	-0.161
ATAGCGTC	0.0478
GCCACGCC	-0.175
AACACCTT	0.0653
TAGCCACA	0.0597
TCTTCCAA	-0.00597
GACGAGGC	-0.156
ATAGGTTA	0.0929
GAATACTA	0.232
GACGTTCC	-0.0407
AGTAGACT	0.0177
AATTCTAA	0.135
CTTGTTGA	0.0519
ACATTGCT	0.00432
CGGTCCTA	-0.253

Sequence	PBM E-score
TGGGGAAA	0.0416
CATAAAAA	0.186
CCTAAATC	0.097
GGATTCAA	0.0633
CAGCATAA	0.118
AAACATCG	-0.149
AATCGGCT	0.0793
GCCCATCC	-0.281
CGGCGGCC	-0.123
TACTAACA	0.294
CATTGTGC	0.137
CAGGGCAG	-0.117
AGTATTCG	0.0991
CTTATTAA	0.339
CAAAGTTC	0.0509
CACAGATG	-0.142
GGTACACA	0.00705
CTAGGTTC	-0.106
CGTGCGGA	-0.0214

From the supplement of paper PMC3334620
